{"source": "PubChem BioAssay AID602196 (INSERM, 2012)", "test": "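Genes whose knock-down alters cisplatin killing of lung cancer cells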", "cells": "human A549 lung cancer cells", "knock-down reagent": "siRNA pair against human genes", "time to read-out": "48 h transfection before cisplatin; time from cisplatin to read-out not stated", "conditions": "cisplatin at a dose killing half of control-siRNA cells; exact dose and duration not given", "read-out": "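Cisplatin cell death as a shift from the 50% death seen with control siRNA; siRNAs toxic or growth-blocking alone scored 0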", "reading the numbers": "two-siRNA summed score (-2 to +2): higher = both siRNAs protect from cisplatin killing; -2 means both sensitise; mean protection from cisplatin (shift in death): higher = protection from cisplatin killing", "hit rule": "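siRNAs harmful alone (LDH or WST-1) get 0; others get +1 for less and -1 for more cisplatin killing; genes are active when the two siRNAs give the same sign, summing to ±2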", "calls": "active = both siRNAs shift cisplatin killing the same way; inactive = no consistent shift, or siRNA harmful alone", "note": "In all, the deposit lists about 23,000 reagents; shown is an unselected part. 455 of all reagents (2%) count as active. 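Active includes both protection and sensitisation; some change values fall well beyond the stated -50 to +50 range.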 Entries without a mark were called inactive. Not all columns of the deposit are shown. No sequences are given here. Not given: the amount of reagent."}
{"gene": "KIF11", "two-siRNA summed score (-2 to +2)": 0, "mean protection from cisplatin (shift in death) (%)": 22.1}
{"gene": "BBS10", "two-siRNA summed score (-2 to +2)": 0, "mean protection from cisplatin (shift in death) (%)": 6.3}
{"gene": "C20orf204", "two-siRNA summed score (-2 to +2)": 0, "mean protection from cisplatin (shift in death) (%)": 22.5}
{"gene": "PMS2P2", "two-siRNA summed score (-2 to +2)": 0, "mean protection from cisplatin (shift in death) (%)": -3.5}
{"gene": "PPOX", "two-siRNA summed score (-2 to +2)": 0, "mean protection from cisplatin (shift in death) (%)": -1.1}
{"gene": "DLG5", "two-siRNA summed score (-2 to +2)": 0, "mean protection from cisplatin (shift in death) (%)": 2.9}
{"gene": "LOC441873", "two-siRNA summed score (-2 to +2)": 1, "mean protection from cisplatin (shift in death) (%)": 12.7}
{"gene": "LOC389257", "two-siRNA summed score (-2 to +2)": 0, "mean protection from cisplatin (shift in death) (%)": 2.9}
{"gene": "NSMAF", "two-siRNA summed score (-2 to +2)": "-2 (active)", "mean protection from cisplatin (shift in death) (%)": -25.4}
{"gene": "TGDS", "two-siRNA summed score (-2 to +2)": 0, "mean protection from cisplatin (shift in death) (%)": -0.1}
{"gene": "MMP3", "two-siRNA summed score (-2 to +2)": 1, "mean protection from cisplatin (shift in death) (%)": -5.4}
{"gene": "LOC346887", "two-siRNA summed score (-2 to +2)": 0, "mean protection from cisplatin (shift in death) (%)": 7.3}

2 entries from above, ordered by “two-siRNA summed score (-2 to +2)”, low to high.
{"gene": "NSMAF", "two-siRNA summed score (-2 to +2)": "-2 (active)", "mean protection from cisplatin (shift in death) (%)": -25.4}
{"gene": "LOC389257", "two-siRNA summed score (-2 to +2)": 0, "mean protection from cisplatin (shift in death) (%)": 2.9}
